Experiment: gradient 5% acetonitrile 3 min, to 50% in 2 min, to 85% in 15 min, held 3 min, 100 µL/min
Conditions: column: Zorbax Extend-C18 2.1 x 50 mm; eluents: water / acetonitrile, 0.1% formic acid
Summary of the method: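 Retention times of pure standards were taken from adduct peaks that were selected by computer and manually inspected. Over 3 months, mixtures of ~100 molecules were run by HPLC–quadrupole time-of-flight mass spectrometry in positive and negative ionization mode. The Zorbax Extend-C18 column (2.1 × 50 mm, 1.8 μm) ran at 100 μL/min in water and acetonitrile, each containing 0.1% formic acid, with 40 μL dead volume and 900 μL dwell volume.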

In the case of `COc1ccc(S(=O)(=O)N2CCCCC2)cc1C(=O)O`, the RP-LC retention time was 673 s.
